Laboratory results as given in PubChem BioAssay AID2551 (National Center for Advancing Translational Sciences (NCATS), 2010).
Out of some 310,000 compounds screened, about 17,000 (5.5%) were called active. This list was built around the results that the source calls inconclusive (neither active nor inactive); the mix of calls is not that of the screen. The call rests on the fitted dose curve; in most records, active means well fitted inhibition curve with a large enough effect; inconclusive means small, poorly fitted or top-dose-only effect, or effect the other way; inactive means no such curve, though single readings can be large or run the other way. Where the call is inconclusive, the potency comes from a doubtful curve fit.

Chains of the proteins cited; added tags and fusions are not shown. Lines headed by an entry give the natural chain unless they say otherwise; changes in a name come on top.
UniProt P51450: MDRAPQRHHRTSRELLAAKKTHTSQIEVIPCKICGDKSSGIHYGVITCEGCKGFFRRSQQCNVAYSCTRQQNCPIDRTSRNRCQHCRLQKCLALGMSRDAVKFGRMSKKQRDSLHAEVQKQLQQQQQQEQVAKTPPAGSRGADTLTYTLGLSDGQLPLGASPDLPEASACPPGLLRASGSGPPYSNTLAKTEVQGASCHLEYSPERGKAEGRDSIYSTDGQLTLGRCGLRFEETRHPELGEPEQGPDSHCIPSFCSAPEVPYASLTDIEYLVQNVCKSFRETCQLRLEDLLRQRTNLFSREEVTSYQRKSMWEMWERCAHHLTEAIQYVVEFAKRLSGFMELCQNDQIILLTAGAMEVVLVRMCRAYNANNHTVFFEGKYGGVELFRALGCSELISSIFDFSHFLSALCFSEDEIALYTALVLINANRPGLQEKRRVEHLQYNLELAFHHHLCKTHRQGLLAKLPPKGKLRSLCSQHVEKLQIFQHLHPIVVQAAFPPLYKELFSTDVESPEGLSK

biological target: Nuclear receptor ROR-gamma (Mus musculus) (UniProt P51450); experiment: qHTS for inhibitors of ROR gamma transcriptional activity; conditions: Drosophila S2 Gal4-RORgamma UAS-luciferase reporter, 20 h; activity change, negative = inhibition: at 53.6 µM (top of the series); further: nearly all actives have a fitted effect of over 60% in size
Procedure, shortened: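 Stably transfected Drosophila Schneider cells are the test system, with ROR gamma fused to Gal4 and luciferase under UAS control; luminescence is read after 20 hr of 700 uM copper sulfate induction at ambient temperature.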
On the % scale 0 is the no-effect control and ±100 the full control effect; potency means the concentration at half of the fitted maximal effect.

| Compound | Potency | activity change, negative = inhibition |
| --- | --- | --- |
| Cc1ccsc1/C=N/n1c(-c2ccccn2)n[nH]c1=S | inconclusive: 7.08 µM [inhibitor, single point] | – |
| CCOC(=O)N1CCN(C(=O)c2ccccc2CCc2ccccc2)CC1 | inactive | – |
| COc1ccc(NC(=S)NC2CCCCC2)c(OC)c1 | active: 3.16 µM | – |
| Oc1ccc(/C=N/Nc2ncc(Cl)cc2Cl)cc1 | inconclusive: 11.2 µM [inhibitor, partial curve, poor fit] | – |
| Cc1occc1C(=O)Nc1ccc2c(c1)OCO2 | inactive | – |
| C/C(=N\NC(=O)c1cccs1)c1cccnc1 | inactive | – |
| COC(=O)c1ccc(Oc2nc(NC(C)C)nc(SC)n2)cc1 | inconclusive: 35.5 µM [inhibitor, single point] | – |
| Cn1c(-c2ccccc2)c(/C=N/NC(=O)c2cccnc2)c2ccccc21 | inconclusive: 15.8 µM [inhibitor, single point] | – |
| COc1ccccc1/C=C/C=N/NC(=O)c1ccc2nc[nH]c2c1 | inactive | – |
| Cc1ccc(CCNC(=O)C2CCCN(S(=O)(=O)c3c(C)noc3/C=C/N(C)C)C2)cc1 (centres undefined) | inconclusive: 0.708 µM [inhibitor, full curve, poor fit] | – |
| COc1ccc(NC(=O)CN(c2cc(C)cc(C)c2)S(=O)(=O)c2c(C)n[nH]c2C)cc1 | inactive | – |
| COc1ccc(CN=C2NC(=O)CC(C(=O)Nc3ccc(F)cc3)S2)cc1 (centres undefined) | inactive | – |
| NNC(=S)Nc1ccc(Cl)cc1 | active: 11.2 µM | – |
| CN1C(=O)C(CC(=O)Nc2ccc(F)cc2)N(Cc2cccs2)C1=S (centres undefined) | inconclusive: 12.6 µM [activator, partial curve] | – |
| CC(=O)c1cccc(N2Cc3ccccc3C2=NC(=O)CCl)c1 | inactive | – |
| O=c1c(O)c(-c2ccc(O)c(O)c2)oc2ccccc12 | inconclusive: 31.6 µM [activator, single point] | – |
| CC1Cc2cc(-c3csc(NC(=O)Cc4cccs4)n3)ccc2N1S(C)(=O)=O (centres undefined) | inconclusive: 35.5 µM [activator, single point] | – |
| Cc1ccc(S(=O)(=O)N(C)CC(O)Cn2c3ccccc3c3ccccc32)cc1 (centres undefined) | inconclusive: 1 µM [activator, full curve, poor fit] | – |
| Cc1ccc(C)c(Cc2c(C)nc3c(C(=O)N4CCOCC4)cnn3c2C)c1 | inactive | – |
| CC1CCc2sc(C(=O)NNC(=S)NC3CC3)cc2C1 (centres undefined) | inconclusive: 1.26 µM [inhibitor, full curve] | – |
| O=C(CCCc1c[nH]c2ccccc12)N1CCOCC1 | inconclusive: 12.6 µM [activator, partial curve] | – |
| CC1(C)Cc2c(sc3nc(=S)[nH]c(N)c23)CO1 | inconclusive: 3.55 µM [inhibitor, partial curve] | – |
| COc1cc(C)ccc1OCCOCCOc1ccccc1[N+](=O)[O-] | inconclusive: 25.1 µM [activator, single point] | – |
| Nc1ccc(O)c(-c2nc3ccccc3s2)c1 | inconclusive: 35.5 µM [inhibitor, single point] | – |
| CC1=CC(=Nc2c(C)n(C)n(-c3ccccc3)c2=O)C=C(C)C1=O | inconclusive: 22.4 µM [inhibitor, single point] | – |

An excerpt of these results, with each value named:
NNC(=S)Nc1ccc(Cl)cc1
  Potency: active: 11.2 µM
CC1(C)Cc2c(sc3nc(=S)[nH]c(N)c23)CO1
  Potency: inconclusive: 3.55 µM [inhibitor, partial curve]

Following part

| Compound | Potency | activity change, negative = inhibition |
| --- | --- | --- |
| COc1ccc(S(=O)(=O)Cc2ccc(C(=O)NCc3ccccc3)o2)cc1 | inactive | – |
| CC(C)NC(=O)NC(=O)COC(=O)c1cccc(S(=O)(=O)N2CCCCC2)c1 | inconclusive: 22.4 µM [activator, single point] | – |
| CSCc1ccc(C(=O)NC(C)c2ccc(-n3ccnc3)cc2)cc1 (centres undefined) | inconclusive: 10 µM [activator, partial curve] | – |
| COCCN(CCOC)c1nc(C)nc2c1nc(-c1ccccc1)n2CCCN1CCCCC1C (centres undefined) | inactive | – |
| S=C1Cc2ccccc2N1 | inconclusive: 22.4 µM [inhibitor, single point] | – |
| COC(=O)C1=C(C(=O)OC)[C@@H]2N(Cc3ccccc3)c3ccccc3[C@@]23C[C@@H](C(=O)OC)N(C(=O)c2cccs2)C3=N1 | inconclusive: 35.5 µM [inhibitor, single point] | – |
| C=CCOc1ccc(-c2n[nH]c(=S)o2)cc1 | active: 11.2 µM | – |
| COc1cc(/C=C/C(=O)c2c(O)ccc3c(C)cc(=O)oc23)ccc1O | active: 12.6 µM | – |
| O=C(Nc1nnc(-c2ccc(Cl)cc2)o1)c1ccccc1Br | active: 2.51 µM | – |
| O=C(N/N=C/c1ccc(N2CCOCC2)cc1)c1ccccc1NS(=O)(=O)c1cccs1 | inconclusive: 25.1 µM [inhibitor, single point] | – |
| Cn1nc(-c2ccccn2)nc2c(=O)n(C)c(=O)nc1-2 | active: 0.447 µM | – |
| CC1(C)CSC(=S)N1S(=O)(=O)c1ccccc1 | inconclusive: 25.1 µM [inhibitor, single point] | – |
| CCC(C)(C)NC(=O)CSc1nc(Cc2ccccc2)nc2ccccc12 | inconclusive: 17.8 µM [activator, single point] | – |
| N#C/C(=C(/O)c1ccc(C(=O)c2ccccc2)cc1)c1nc2ccccc2[nH]1 | inactive | – |
| CC(=O)NC1CCCN(O)C(=O)/C=C(\C)CCOC(=O)C(NC(C)=O)CCCN(O)C(=O)/C=C(\C)CCOC(=O)C(NC(C)=O)CCCN(O)C(=O)/C=C(\C)CCOC1=O (centres undefined) | inactive | – |
| Cc1cc(Cl)ccc1NC(=S)NCC(C)C | active: 4.47 µM | – |
| COCCNC(=O)C(OC(=O)C1=Cc2ccccc2OC1)C(C)C (centres undefined) | inactive | – |
| CCOCCCNC(=S)Nc1ccc(Br)cc1Cl | inconclusive: 4.47 µM [inhibitor, partial curve, poor fit] | – |
| CC(C)(C)S(=O)(=O)/C(C#N)=N/Nc1ccc(S(C)(=O)=O)cc1 | inactive | – |
| Cc1ccc(C(=O)NNc2ncnc3ccccc23)cc1 | inconclusive: 35.5 µM [inhibitor, single point] | – |
| CC(=O)N1CCC2(CC1)CN(c1ccncc1)C2 | inactive | – |
| CCc1nnc(NC(=O)CSc2nncc(=O)n2N)s1 | inconclusive: 0.316 µM [inhibitor, full curve, poor fit] | – |
| Cc1ccc(/C=C2\SC(=S)N(CCC(=O)NNS(=O)(=O)c3ccc(C)cc3)C2=O)cc1 | inconclusive: 11.2 µM [inhibitor, single point] | – |
| COc1ccc(OC)c(C2CC(=O)N3CN(c4cccc(Cl)c4C)CSC3=C2C#N)c1 (centres undefined) | inconclusive: 0.708 µM [inhibitor, single point] | – |
| CCOC(=O)/C=C/C(=O)Nc1cccc([N+](=O)[O-])c1 | – | inactive: 17% [at 10 µM] |

| Compound | Potency | activity change, negative = inhibition |
| --- | --- | --- |
| OC(COc1cccc2ccccc12)CN1CCCC1 (centres undefined) | inactive | – |
| C=CCNC(=S)NNC(=O)c1cc(-c2cccnc2)nc2ccccc12 | inactive | – |
| COc1ccc(NC(=S)Nc2cc(-c3ccccc3)[nH]n2)cc1Cl | active: 2.82 µM | – |
| CC(C)(C)c1ccc(/C=N/NC(=O)Cc2c[nH]c3ccccc23)cc1 | inconclusive: 35.5 µM [inhibitor, single point] | – |
| CCOC(=O)N1CCN(S(=O)(=O)c2ccc(C(=O)NNc3nc4cc(C)cc(C)c4s3)cc2)CC1 | active: 11.2 µM | – |
| CCOc1ccc(CCNC(=O)CS(=O)Cc2nc(-c3ccc(OC)c(OC)c3)oc2C)cc1OCC (centres undefined) | inconclusive: 17.8 µM [activator, single point] | – |
| CCOCCCNC(=O)C1CCN(S(=O)(=O)c2ccc(C)cc2)CC1 | inconclusive: 10 µM [inhibitor, single point] | – |
| CC(C)(C)C(=O)[C@@H]1[C@@H]2C(=O)N(C3CCCCC3)C(=O)[C@@H]2[C@H]2c3ccccc3C=CN12 | inconclusive: 11.2 µM [inhibitor, single point] | – |
| COCCN(C(=O)CCCC(=O)Nc1ccccn1)C(C(=O)NC1CCCC1)c1ccc(C)cc1 (centres undefined) | inconclusive: 0.126 µM [inhibitor, single point] | – |
| Cc1nn2c(NCC(C)C)c3c(nc2c1-c1ccccc1)CCC3 | inconclusive: 4.47 µM [inhibitor, partial curve] | – |
| O=C(c1ccc(S(=O)(=O)N2CCOCC2)cc1)N1CCOCC1 | inactive | – |
| O=C(Nc1cccnc1)c1ccccc1Oc1ccccc1 | inactive | – |
| CCOC(=O)c1ccc(OCc2nc(-c3cccs3)no2)cc1 | inconclusive: 8.91 µM [activator, partial curve] | – |
| CC(C)(C)c1csc(NC(=O)Cc2cccs2)n1 | inactive | – |
| COc1cc(C(=O)N/N=C/c2cn(Cc3ccccc3)c3ccccc23)ccc1O | active: 12.6 µM | – |
| O=C(NNC1=NCCN1Cc1ccccc1)c1cccc(C(F)(F)F)c1 | active: 3.16 µM | – |
| O=[N+]([O-])c1cc(Cl)ccc1N1CCN(c2cccc(C(F)(F)F)c2)CC1 | inconclusive: 17.8 µM [activator, single point] | – |
| O=C(CCN1CCN(c2ccccc2)CC1)c1ccc(Cl)cc1 | inconclusive: 35.5 µM [inhibitor, single point] | – |
| O=C(CSc1ncnc2scc(-c3ccccc3)c12)NC1CCS(=O)(=O)C1 (centres undefined) | inconclusive: 14.1 µM [activator, partial curve] | – |
| COc1ccc(C2CC(=O)N3C(=C2C#N)SCC3(O)c2ccccc2)cc1 (centres undefined) | inconclusive: 35.5 µM [activator, single point] | – |
| CC(C)(C)SCCNC(=O)c1ccccc1 | inconclusive: 0.562 µM [activator, full curve, poor fit] | – |
| Cc1cc(C)nc(N(C#N)CCOc2ccc(Cl)cc2)n1 | inconclusive: 15.8 µM [activator, single point] | – |
| Cc1ccsc1/C=N/NC(=O)C(=O)NCC(C)C | inconclusive: 28.2 µM [inhibitor, single point] | – |
| COc1cccc(CC(CC(=O)O)C(=O)Nc2cc(C)ccc2C)c1 (centres undefined) | inactive | – |

Part of the list above, with each value named.
COc1cc(C)ccc1OCCOCCOc1ccccc1[N+](=O)[O-]
  Potency: inconclusive: 25.1 µM [activator, single point]
COCCN(C(=O)CCCC(=O)Nc1ccccn1)C(C(=O)NC1CCCC1)c1ccc(C)cc1 (centres undefined)
  Potency: inconclusive: 0.126 µM [inhibitor, single point]
